PubChem BioAssay AID1159579 | Peter MacCallum Cancer Centre, 2015
In all, the deposit lists about 2,000 reagents; below is an unselected part. 549 of them (27%) were called active. 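Some migration ratios are negative; siRNAs with too few cells are inactive whatever their migration ratio.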 Reagents against one gene are numbered here. Not all columns of the deposit are shown. Not stated in the record: the time to read-out.

Test: 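Retest candidate lymphatic endothelial migration regulators using several independent siRNAs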 (follow-up of hits)
Cell system: human dermal lymphatic endothelial cells
Knock-down reagent: single siRNA against human genes, 25 nM
Measured: 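High content images of wound closure area and cell nuclei counts, each the average of two wells, expressed against mock transfection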
Direction: migration relative to mock: higher = more migration into the scratch; mean nuclei count: higher = more cells remaining
Call rule: 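Called active when the migration ratio is 0.6 or lower (impaired) or 1.3 or higher (accelerated), but inactive whenever the mean nuclei count falls under 3300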
Calls: active = migration changed (impaired or accelerated); inactive = no migration change, or too few cells

gene symbol | reagent | migration relative to mock | mean nuclei count | outcome
RELT (RELT TNF receptor) | 1 | 0.44 | 4864 | active
RELT (RELT TNF receptor) | 2 | 0.96 | 5238 | inactive
RELT (RELT TNF receptor) | 3 | 0.49 | 5809 | active
RELT (RELT TNF receptor) | 4 | 0.69 | 5776 | inactive
APOA2 (apolipoprotein A2) | 1 | 0.18 | 4669 | active
APOA2 (apolipoprotein A2) | 2 | 0.62 | 5444 | inactive
APOA2 (apolipoprotein A2) | 3 | 0.16 | 4344 | active
APOA2 (apolipoprotein A2) | 4 | 0.24 | 5214 | active
KLHDC4 (kelch domain containing 4) | 1 | 0.8 | 5029 | inactive
KLHDC4 (kelch domain containing 4) | 2 | 1.25 | 4419 | inactive
KLHDC4 (kelch domain containing 4) | 3 | 0.52 | 5438 | active
KLHDC4 (kelch domain containing 4) | 4 | 0.75 | 4435 | inactive
PRKCG (protein kinase C gamma) | 1 | 0.74 | 5998 | inactive
PRKCG (protein kinase C gamma) | 2 | 0.94 | 7436 | inactive
PRKCG (protein kinase C gamma) | 3 | 1.1 | 5115 | inactive
PRKCG (protein kinase C gamma) | 4 | 1.04 | 5788 | inactive
HIGD1B (HIG1 hypoxia inducible domain family member 1B) | 1 | 0.62 | 4387 | inactive
HIGD1B (HIG1 hypoxia inducible domain family member 1B) | 2 | 0.9 | 7478 | inactive
HIGD1B (HIG1 hypoxia inducible domain family member 1B) | 3 | 0.99 | 4910 | inactive
HIGD1B (HIG1 hypoxia inducible domain family member 1B) | 4 | 0.6 | 4668 | active
FGFR3 (fibroblast growth factor receptor 3) | 1 | 0.88 | 6050 | inactive
FGFR3 (fibroblast growth factor receptor 3) | 2 | -1.68 | 864 | inactive
FGFR3 (fibroblast growth factor receptor 3) | 3 | 0.64 | 4916 | inactive
FGFR3 (fibroblast growth factor receptor 3) | 4 | 0.96 | 5592 | inactive
ALAS2 (5'-aminolevulinate synthase 2) | 1 | 0.68 | 5559 | inactive
ALAS2 (5'-aminolevulinate synthase 2) | 2 | 0.51 | 5518 | active
ALAS2 (5'-aminolevulinate synthase 2) | 3 | 0.86 | 6628 | inactive
ALAS2 (5'-aminolevulinate synthase 2) | 4 | 0.75 | 7228 | inactive
CRBN (cereblon) | 1 | 0.81 | 5084 | inactive
CRBN (cereblon) | 2 | 1.02 | 5796 | inactive
CRBN (cereblon) | 3 | -0.21 | 2868 | inactive
CRBN (cereblon) | 4 | 0.98 | 4884 | inactive
ATXN1 (ataxin 1) | 1 | 0.97 | 6512 | inactive
ATXN1 (ataxin 1) | 2 | 0.82 | 4497 | inactive
ATXN1 (ataxin 1) | 3 | 0.62 | 3608 | inactive
ATXN1 (ataxin 1) | 4 | 0.9 | 5004 | inactive

Copied from above for reference:
gene symbol | reagent | migration relative to mock | mean nuclei count | outcome
PRKCG (protein kinase C gamma) | 3 | 1.1 | 5115 | inactive
PRKCG (protein kinase C gamma) | 4 | 1.04 | 5788 | inactive
HIGD1B (HIG1 hypoxia inducible domain family member 1B) | 1 | 0.62 | 4387 | inactive
HIGD1B (HIG1 hypoxia inducible domain family member 1B) | 2 | 0.9 | 7478 | inactive
HIGD1B (HIG1 hypoxia inducible domain family member 1B) | 3 | 0.99 | 4910 | inactive
HIGD1B (HIG1 hypoxia inducible domain family member 1B) | 4 | 0.6 | 4668 | active
FGFR3 (fibroblast growth factor receptor 3) | 1 | 0.88 | 6050 | inactive
FGFR3 (fibroblast growth factor receptor 3) | 2 | -1.68 | 864 | inactive

Further entries:
gene symbol | reagent | migration relative to mock | mean nuclei count | outcome
EGR1 (early growth response 1) | 1 | 0.88 | 6028 | inactive
EGR1 (early growth response 1) | 2 | 1.12 | 6324 | inactive
EGR1 (early growth response 1) | 3 | 0.28 | 4212 | active
EGR1 (early growth response 1) | 4 | 0.9 | 5494 | inactive
MTERF3 (mitochondrial transcription termination factor 3) | 1 | 1.09 | 6182 | inactive
MTERF3 (mitochondrial transcription termination factor 3) | 2 | 0.9 | 5223 | inactive
MTERF3 (mitochondrial transcription termination factor 3) | 3 | 0.74 | 4124 | inactive
MTERF3 (mitochondrial transcription termination factor 3) | 4 | 0.48 | 4290 | active
EVX2 (even-skipped homeobox 2) | 1 | 0.92 | 5625 | inactive
EVX2 (even-skipped homeobox 2) | 2 | 1.08 | 5843 | inactive
EVX2 (even-skipped homeobox 2) | 3 | 0.91 | 5330 | inactive
EVX2 (even-skipped homeobox 2) | 4 | 0.7 | 5699 | inactive
CD8A (CD8 subunit alpha) | 1 | 0.62 | 4668 | inactive
CD8A (CD8 subunit alpha) | 2 | 0.96 | 6114 | inactive
CD8A (CD8 subunit alpha) | 3 | 0.58 | 5311 | active
CD8A (CD8 subunit alpha) | 4 | -1.23 | 2302 | inactive
NIF3L1 (NGG1 interacting factor 3 like 1) | 1 | 0.82 | 6876 | inactive
NIF3L1 (NGG1 interacting factor 3 like 1) | 2 | 0.98 | 5354 | inactive
NIF3L1 (NGG1 interacting factor 3 like 1) | 3 | 0.87 | 5206 | inactive
NIF3L1 (NGG1 interacting factor 3 like 1) | 4 | 0.86 | 4477 | inactive
APOE (apolipoprotein E) | 1 | 0.86 | 6394 | inactive
APOE (apolipoprotein E) | 2 | 0.81 | 5140 | inactive
APOE (apolipoprotein E) | 3 | 0.64 | 5610 | inactive
APOE (apolipoprotein E) | 4 | 0.68 | 3752 | inactive
TLL2 (tolloid like 2) | 1 | 0.87 | 4078 | inactive
TLL2 (tolloid like 2) | 2 | 0.51 | 4206 | active
TLL2 (tolloid like 2) | 3 | -0.1 | 2903 | inactive
TLL2 (tolloid like 2) | 4 | 0.66 | 5194 | inactive
SLC22A24 | 1 | 0.75 | 5620 | inactive
SLC22A24 | 2 | 0.61 | 6726 | inactive
SLC22A24 | 3 | 0.57 | 5445 | active
SLC22A24 | 4 | 1.04 | 6442 | inactive
